Publication doi:10.1101/2021.08.18.456771
No constants are given. Whether binding was seen depends on the method and setting. In cells and extracts the contact can be indirect. Some entries that bind do so weakly or less than the wild type. Where a sequence is shown, tags or fusion partners need not be part of it.

Chains of the proteins cited; added tags and fusions are not shown.
UniProt Q01196: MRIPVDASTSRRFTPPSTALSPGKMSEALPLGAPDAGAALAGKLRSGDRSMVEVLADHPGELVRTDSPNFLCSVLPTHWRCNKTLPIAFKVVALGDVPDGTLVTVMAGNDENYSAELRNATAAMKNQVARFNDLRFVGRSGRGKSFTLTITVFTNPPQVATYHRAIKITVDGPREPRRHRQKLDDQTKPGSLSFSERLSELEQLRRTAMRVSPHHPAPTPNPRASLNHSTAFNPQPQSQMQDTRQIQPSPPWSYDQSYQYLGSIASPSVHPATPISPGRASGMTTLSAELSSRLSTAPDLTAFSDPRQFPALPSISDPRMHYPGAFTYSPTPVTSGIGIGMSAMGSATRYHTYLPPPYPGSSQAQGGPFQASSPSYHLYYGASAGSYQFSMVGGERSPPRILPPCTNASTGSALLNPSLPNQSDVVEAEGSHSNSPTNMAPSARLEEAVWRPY

Legend:
Myc-VGLL3 = target: T1, Myc-VGLL3 (UniProt A8MV65); test: co-IP
T1 sequence: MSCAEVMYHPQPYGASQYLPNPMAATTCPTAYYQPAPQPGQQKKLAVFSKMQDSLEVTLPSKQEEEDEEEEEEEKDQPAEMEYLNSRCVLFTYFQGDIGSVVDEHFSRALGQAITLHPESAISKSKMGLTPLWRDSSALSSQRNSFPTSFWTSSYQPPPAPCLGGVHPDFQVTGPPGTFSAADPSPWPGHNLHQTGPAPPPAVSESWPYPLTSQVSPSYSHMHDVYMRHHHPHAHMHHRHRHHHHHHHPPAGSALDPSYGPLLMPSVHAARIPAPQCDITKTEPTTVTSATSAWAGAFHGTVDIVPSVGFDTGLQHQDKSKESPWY

[1] = target: T2, FLAG-VGLL3 (stably expressed in MelJuSo cells) (UniProt A8MV65); test: co-IP
T2 sequence: T1 sequence

Substance: HA-RUNX1 (from UniProt Q01196 1-453)
- binding (Myc-VGLL3): binds

Substance: RUNX1 (endogenous) (from UniProt Q01196 1-453)
- binding [1]: binds
